In paper PMC7819943, “Rice protein-binding microarrays: a tool to detect cis-acting elements near promoter regions in rice”:
Some of the results follow.

biological target: T1, OsSMF1 (Oryza sativa, UniProt Q6ZLB0 1-436); experiment: protein-binding microarray (RPBM); PBS, 2% BSA, 51.3 ng/ul salmon testes DNA, 50 uM zinc acetate, 200 nM TF, 25 C, 1 h; high values mean tight binding; details: protein: recombinant; tags: N-terminal polyhistidine and DsRed monomer fusion (pET32a); chain copies: 2; label: CyDye5-dUTP incorporated in the synthesized complementary strand; 3' TTTTT single-stranded linker to array surface; dsDNA, one strand shown
T1 sequence: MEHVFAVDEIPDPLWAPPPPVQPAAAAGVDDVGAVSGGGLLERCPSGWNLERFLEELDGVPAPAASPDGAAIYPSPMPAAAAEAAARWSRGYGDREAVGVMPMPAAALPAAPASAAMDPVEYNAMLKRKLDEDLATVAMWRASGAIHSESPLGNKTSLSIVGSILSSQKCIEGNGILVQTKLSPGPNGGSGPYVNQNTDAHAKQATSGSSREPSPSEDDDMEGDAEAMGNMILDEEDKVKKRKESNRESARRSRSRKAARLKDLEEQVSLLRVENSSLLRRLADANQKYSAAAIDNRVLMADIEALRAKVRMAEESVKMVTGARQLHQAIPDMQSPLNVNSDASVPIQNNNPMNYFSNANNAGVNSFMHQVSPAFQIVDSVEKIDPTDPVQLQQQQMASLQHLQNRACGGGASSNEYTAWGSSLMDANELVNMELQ
Summary of the method: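 Binding signal is defined as the fluorescence intensity of each feature in arbitrary units, read on an Axon 4000B scanner. Transcription factors with N-terminal polyhistidine and DsRed fusions came from E. coli BL21-CodonPlus and were purified on Ni–NTA. They were incubated at 200 nM for 1 h at 25 °C on a custom Agilent array that had been made double-stranded with Cy5-dUTP, with 50 µM zinc acetate present, and the array was washed.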

Point of comparison: “GGGAAGACGGTGGGGCGGGGACAGAGGTAGGGGAAGGAGGCGGAGTCACCTAGTGCAG”, binding signal 4820 fluorescence intensity (a.u.). Against it:
- ACTGGGCCGGTGCTGCTGACGTCACGCCGAGCTACTTACCCGGAGTCACCTAGTGCAG — higher, 21300 fluorescence intensity (a.u.)
- TATTACTTCCTCCGTTTTACAATGTAAGTCATTCTAGCATCGGAGTCACCTAGTGCAG — higher, 18800 fluorescence intensity (a.u.)
- GGCTTGCGGCAGGCACCGAGGGCGTGGAATGCCAAGTTGGCGGAGTCACCTAGTGCAG — lower, 3280 fluorescence intensity (a.u.)
- GCTCGCTGACTGCGCCGAGTTTTATTCCCTACCGCCGCTCCGGAGTCACCTAGTGCAG — lower, 3360 fluorescence intensity (a.u.)
- GCGCGCCCGCCCGAAACCGATCGATCGATCGATCAGGTGCCGGAGTCACCTAGTGCAG — lower, 4390 fluorescence intensity (a.u.)
- ACATGTGGAGGGAACAGGGCGTGGAATCAAGGGTCGGGATCGGAGTCACCTAGTGCAG — lower, 3300 fluorescence intensity (a.u.)
- CATGATGATCGATCAGTGGCTGTCTGCGTCACAGTCACTACGGAGTCACCTAGTGCAG — higher, 5370 fluorescence intensity (a.u.)
- TTTGAAAACGTTGTTTGAAGTTGTCATAATTTGAAATTCACGGAGTCACCTAGTGCAG — lower, 3250 fluorescence intensity (a.u.)
- TCCGCCCTGCCACCTGGCACCCGAATATTCCTTCCGCCCGCGGAGTCACCTAGTGCAG — higher, 6380 fluorescence intensity (a.u.)
- AACGATATATTTGTTTTCTTGCTAAGCACAAGAGCTGGGGCGGAGTCACCTAGTGCAG — lower, 3200 fluorescence intensity (a.u.)
- ATGGCCGGAGAGAGCAGCTGCTGTACTGATGACGCCAACTCGGAGTCACCTAGTGCAG — lower, 3550 fluorescence intensity (a.u.)
- CCACCATGGCATGCCACGTCAACACACAGAGTGGGTTGGACGGAGTCACCTAGTGCAG — higher, 17900 fluorescence intensity (a.u.)
- AGGGTAATAACCCAGCCTGTGTTGTGTGTGTTGGTTTAGACGGAGTCACCTAGTGCAG — lower, 3900 fluorescence intensity (a.u.)
- GTTACACCATCCACGCGGCAAGACAATCAAGCCAAATGTTCGGAGTCACCTAGTGCAG — higher, 6070 fluorescence intensity (a.u.)
- CGTCGTCGTGTACCACGTCCTCCACCGCCGGCTTCCCGCGCGGAGTCACCTAGTGCAG — higher, 6700 fluorescence intensity (a.u.)
- CGCGAAGCCCACACGACGCACGGCCCAACTGCGAACGCTCCGGAGTCACCTAGTGCAG — lower, 3140 fluorescence intensity (a.u.)
- ACACACGAAGGAGCTGGAAACCAAACCCACGTACGATGCTCGGAGTCACCTAGTGCAG — higher, 5490 fluorescence intensity (a.u.)
- CCAATGACCCCGCAACCACATCTCCCAATGACCCCGCAACCGGAGTCACCTAGTGCAG — lower, 3300 fluorescence intensity (a.u.)
- CCCTTCCTCGCGCGCACTGATGACTCAGAAACACGCACGCCGGAGTCACCTAGTGCAG — higher, 14200 fluorescence intensity (a.u.)
- ACCCAACGACTCAGCGAACACATCACAACAGAACCCATGACGGAGTCACCTAGTGCAG — lower, 3340 fluorescence intensity (a.u.)
- GTCGTGTCGTGCCGGCCCATGGGTTGTGGTAGCCGTGCCGCGGAGTCACCTAGTGCAG — higher, 18900 fluorescence intensity (a.u.)
- ATCTTCGGGGTGGGTTACACATGCACAATTAACACGCTAGCGGAGTCACCTAGTGCAG — lower, 4430 fluorescence intensity (a.u.)
- TTCGCTTTCATCCCTTCCATGCCCCACCCGTTAGGTTTCCCGGAGTCACCTAGTGCAG — higher, 20400 fluorescence intensity (a.u.)
- ACTTAAGGCCTTTGGGGCTCCACGTTGAAGTCGGATGTGTCGGAGTCACCTAGTGCAG — lower, 4010 fluorescence intensity (a.u.)
- TCTCTACTCTGTCGTGGCATGACTTTTGTTGCTTTAATTTCGGAGTCACCTAGTGCAG — higher, 5380 fluorescence intensity (a.u.)
- CCAATTTAGAACCAAGCATTGAGTAGAATATAGAAAATATCGGAGTCACCTAGTGCAG — higher, 25500 fluorescence intensity (a.u.)
- CAATTCATTTATCTAGTCATCATTCCATTAAATTCTGCAGCGGAGTCACCTAGTGCAG — lower, 4700 fluorescence intensity (a.u.)
- CTTCCTGAGTTTCCTGAACCGTGCCCTGCGATCCGTGGCGCGGAGTCACCTAGTGCAG — lower, 3140 fluorescence intensity (a.u.)
- ATCTGATTACCCTTTCTCACTAGACACGTGCCAAAACTAGCGGAGTCACCTAGTGCAG — higher, 5760 fluorescence intensity (a.u.)
- TGAGATAATTAACATGTACTCTAGTCACTAACTTGCAATTCGGAGTCACCTAGTGCAG — lower, 3570 fluorescence intensity (a.u.)
- GGGTGAAGCGTCGCGCGGCGCGCCGTGGCGTGGCGTGGCGCGGAGTCACCTAGTGCAG — higher, 6090 fluorescence intensity (a.u.)
- GTTGAAAGTACAACCTTGCCAACGTGAACAAGGTAATGTCCGGAGTCACCTAGTGCAG — lower, 3490 fluorescence intensity (a.u.)
- TTGGTGGCCGTGGTGGACAAGGGCGCTGACCACGACAGATCGGAGTCACCTAGTGCAG — lower, 3240 fluorescence intensity (a.u.)
- GTCAGTGGCTCAGTGCCACCCGTAGTGTACTGCCACTCCGCGGAGTCACCTAGTGCAG — lower, 3370 fluorescence intensity (a.u.)
- CGGCGGCTATCGTGGGGATGACGAGGGTCGTAGCAGCTACCGGAGTCACCTAGTGCAG — higher, 5530 fluorescence intensity (a.u.)
- TACTCGGTCAGAATCTGTCATACTGATGTGGTCATCGAGACGGAGTCACCTAGTGCAG — lower, 4090 fluorescence intensity (a.u.)
- GCGTCACGTTCCTGTCGGCGGCGGCCAACGTGGCCCGCGTCGGAGTCACCTAGTGCAG — higher, 15200 fluorescence intensity (a.u.)
- TATACAGTATTCAGTCAGACTAAGTTAAACTCTTTGTCGCCGGAGTCACCTAGTGCAG — lower, 3380 fluorescence intensity (a.u.)
- GGAGATCTCATCAAACCATCTCGACAAAGGTCTCGCCGGTCGGAGTCACCTAGTGCAG — lower, 3230 fluorescence intensity (a.u.)
- CTTACTTTGTCTGTGTAAACAATGTAGGTGAGCTGTAGCGCGGAGTCACCTAGTGCAG — lower, 3150 fluorescence intensity (a.u.)
- AGGACCAGGAGAATACTGCCATTGGTGATGACTACAATGACGGAGTCACCTAGTGCAG — lower, 4250 fluorescence intensity (a.u.)
